{
  "sequences": {"note": "Sequences of proteins named here, by UniProt entry; tags and fusion partners are left off. A change or cut given only in a name is not applied to a line headed by its entry.", "UniProt P18054": "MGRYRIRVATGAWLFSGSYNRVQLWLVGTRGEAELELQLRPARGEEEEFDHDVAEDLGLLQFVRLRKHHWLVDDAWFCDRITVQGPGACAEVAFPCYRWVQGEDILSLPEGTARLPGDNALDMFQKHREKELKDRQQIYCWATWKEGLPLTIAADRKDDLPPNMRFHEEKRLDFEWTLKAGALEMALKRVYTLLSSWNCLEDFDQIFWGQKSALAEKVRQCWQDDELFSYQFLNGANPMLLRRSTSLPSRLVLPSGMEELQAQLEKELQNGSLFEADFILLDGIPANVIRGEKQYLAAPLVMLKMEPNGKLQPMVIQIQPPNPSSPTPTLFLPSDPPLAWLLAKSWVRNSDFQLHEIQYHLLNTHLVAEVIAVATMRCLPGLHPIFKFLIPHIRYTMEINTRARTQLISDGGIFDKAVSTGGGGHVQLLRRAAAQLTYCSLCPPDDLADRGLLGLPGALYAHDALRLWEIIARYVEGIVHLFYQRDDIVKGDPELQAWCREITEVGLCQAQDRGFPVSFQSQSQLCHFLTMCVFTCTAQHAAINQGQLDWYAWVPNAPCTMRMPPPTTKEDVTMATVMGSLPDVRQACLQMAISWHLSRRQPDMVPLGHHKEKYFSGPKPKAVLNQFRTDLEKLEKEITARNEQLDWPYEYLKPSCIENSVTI"},
  "source": "PubChem BioAssay AID1671190",
  "about": "(National Center for Advancing Translational Sciences (NCATS), 2021)",
  "note": "Values joined by “and” are separate entries in the source; they are usually repeats but may differ in a detail not shown here. Equal values may be shown once. About 6,100 (1.1%) of roughly 580,000 compounds were called active. Inconclusive results, whose numbers are uncertain, are shown with a selection of clear calls. Calls follow the shape of the dose curve; as a rule, active = well fitted inhibition curve with a large enough effect; inconclusive = small, poorly fitted or top-dose-only effect, or another doubt; inactive = no such curve, though single readings can be large or run the other way. A potency beside an inconclusive call is a rough fit, not a confirmed value. % is scaled to controls: 0 for no effect and ±100 for the full control effect; potency is read from the fitted curve at half-maximal effect.",
  "data": [
    {"target": "Polyunsaturated fatty acid lipoxygenase ALOX12 (Homo sapiens) (UniProt P18054)", "assay": "Primary qHTS assay for inhibitors of human arachidonate 12S-lipoxygenase (ALOX12): Round 2", "conditions": "purified 12hLO, xylenol orange hydroperoxide absorbance; activity change, negative = inhibition: at 108 µM (top of the series) unless noted", "method_in_brief": "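Purified human 12hLO at 150 nM in 25 mM Hepes, 0.01% Triton X-100, pH 7.0, preincubated 15 min at room temperature with compound. Reaction started with 40 uM arachidonic acid, 30 min at room temperature. Hydroperoxide measured by Fe-xylenol orange, 573/405 nm absorbance ratio.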", "values": [
      {"smiles": "COC(=O)Nc1sc2c(c1C(N)=O)CCC(C)C2", "note": "(stereo not given)", "activity change, negative = inhibition": "inactive: 40.8%"},
      {"smiles": "O=C(O)C(c1c[nH]c2ccc(Cl)cc12)N1CCN(Cc2ccc(Cl)cc2Cl)CC1", "note": "(stereo not given)", "Potency": "inconclusive: 39.8 µM [inhibitor, partial curve, poor fit]"},
      {"smiles": "Cc1cc(C)c(S(=O)(=O)NCC(c2ccc(N(C)C)cc2)N2CCc3ccccc32)c(C)c1", "note": "(stereo not given)", "Potency": "inconclusive: 141 µM [inhibitor, partial curve, poor fit]"},
      {"smiles": "CC(=O)c1cccc(OCC(O)CN2CCN(C(=O)c3ccco3)CC2)c1", "note": "(stereo not given)", "Potency": "inconclusive: 3.55 µM [inhibitor, full curve, poor fit]"},
      {"smiles": "O=C(CC1CCCC1)N1CCC2(CC1)CC(N(Cc1ccc(F)cc1)C1CC1)CCO2", "note": "(stereo not given)", "activity change, negative = inhibition": "inactive: 19.7%"},
      {"smiles": "CN(C)c1ccc(CNc2nc(-c3ccccc3)nn2S(C)(=O)=O)cc1", "Potency": "inconclusive: 3.16 µM [inhibitor, full curve, poor fit]"},
      {"smiles": "O=C(Nc1ccc2ccccc2c1)C1=C(c2ccccc2)S(=O)(=O)CCO1", "Potency": "inconclusive: 44.7 µM [inhibitor, single point]"},
      {"smiles": "Cc1ccccc1C(=O)NNC(=S)NC(=O)c1ccc(Cl)cc1Cl", "Potency": "inconclusive: 39.8 µM [inhibitor, partial curve]"},
      {"smiles": "COc1ccc(N(C)C2CN(C(=O)OC(C)(C)C)C2)cc1", "Potency": "inconclusive: 112 µM [inhibitor, partial curve, poor fit]"},
      {"smiles": "C=CCn1c(-c2ccccn2)n[nH]c1=S", "Potency": "active: 10 µM"},
      {"smiles": "CCN(CC(=O)Nc1ccc2c(c1)OCCO2)S(=O)(=O)c1ccc(F)cc1", "Potency": "inconclusive: 7.08 µM [inhibitor, full curve, poor fit]"},
      {"smiles": "C=CCN1CCN(C(=O)CCC[C@H]2NC[C@@H]3C[C@H]2CN(Cc2ccccc2)C3)CC1", "Potency": "active: 5.62 µM"},
      {"smiles": "COc1cc2c(cc1OC)-c1c(c(C(=O)N3CCC(C(N)=O)CC3)nn1-c1ccccc1)C2", "Potency": "inconclusive: 100 µM [inhibitor, single point]"},
      {"smiles": "CC(OC(=O)c1ccc2c(c1)NC(=O)CS2)C(=O)Nc1cccc(C(F)(F)F)c1", "note": "(stereo not given)", "activity change, negative = inhibition": "inactive: 4.64%"},
      {"smiles": "COCCNC(=O)c1ccc2c(c1)N(C)C(CC(=O)NCC(F)(F)F)CO2", "note": "(stereo not given)", "activity change, negative = inhibition": "inactive: 42.4%"},
      {"smiles": "CCCCCCCCN1C(=O)[C@H](CC(=O)NCCc2ccccc2OC)C[C@@]2(C(=O)OC)CCCCC=C12", "activity change, negative = inhibition": "inactive: -10.7%"},
      {"smiles": "COc1ccc(NCc2nnc(SCC(=O)NCc3ccccc3)n2-c2ccccc2OC)cc1", "activity change, negative = inhibition": "inactive: 352%"},
      {"smiles": "C[C@H]1CN([C@@H](C)CO)C(=O)c2cc(Br)cnc2O[C@H]1CN(C)C(=O)c1ccccn1", "Potency": "inconclusive: 2.51 µM [inhibitor, partial curve, poor fit]"},
      {"smiles": "Cc1ccc(C(=O)Nc2cccc(C(=O)O)c2)cc1", "Potency": "inconclusive: 70.8 µM [inhibitor, partial curve, poor fit]"},
      {"smiles": "CCOc1ccc(CCN2C(=S)N([C@@H](CC(C)C)CN3CCCC3CN3C(=S)NC[C@@H]3CC(C)C)C[C@@H]2Cc2ccc(O)cc2)cc1", "note": "(stereo not given in full)", "Potency": "inconclusive: 35.5 µM [inhibitor, partial curve, poor fit]"},
      {"smiles": "COc1cccc(Cn2c(=O)c(-c3ccccc3)nc3cnc(N4CCNCC4)nc32)c1", "Potency": "inconclusive: 31.6 µM [inhibitor, partial curve, poor fit]"},
      {"smiles": "CC(C)(C)n1nc(Cc2cccc3ccccc23)c2c(N)ncnc21", "Potency": "inconclusive: 126 µM [inhibitor, single point]"},
      {"smiles": "Cc1cc(NC(=O)COC(=O)C2=NN(c3ccccc3)C(=O)CC2)c([N+](=O)[O-])cc1C", "Potency": "inconclusive: 79.4 µM [inhibitor, single point]"},
      {"smiles": "COc1ccc(NC(=O)NC[C@H]2O[C@@H]3C[C@@H](CC(=O)NCc4nccn4C)O[C@@H]3[C@@H]2O)cc1", "activity change, negative = inhibition": "inactive: 0.766%"},
      {"smiles": "COc1ccccc1NC(=O)CSc1oc(-c2ccco2)nc1S(=O)(=O)c1ccc(Br)cc1", "Potency": "inconclusive: 39.8 µM [inhibitor, partial curve, poor fit]"},
      {"smiles": "COC(=O)C1=CN(c2ccccc2OC)C(N)=C(C#N)C1c1cccc([N+](=O)[O-])c1", "note": "(stereo not given)", "Potency": "inconclusive: 14.1 µM [inhibitor, full curve, poor fit]"},
      {"smiles": "Cc1cccc(Cn2c(N3CCN(Cc4c(F)cccc4Cl)CC3)nc3c2c(=O)[nH]c(=O)n3C)c1", "Potency": "inconclusive: 6.31 µM [inhibitor, full curve, poor fit]"},
      {"smiles": "CCCCCN(C(=O)CCC(=O)OC(C)C(=O)c1ccc(Cl)cc1)c1c(N)n(CCCC)c(=O)[nH]c1=O", "note": "(stereo not given)", "Potency": "inconclusive: 89.1 µM [inhibitor, partial curve, poor fit]"},
      {"smiles": "CCCC1NC(=O)c2cc3ccccc3cc2-n2c1nc1cc(Cl)ccc1c2=O", "note": "(stereo not given)", "Potency": "inconclusive: 112 µM [inhibitor, single point]"},
      {"smiles": "Cn1c(=O)c2c(nc(NCCc3ccc(F)cc3)n2Cc2ccc(Cl)cc2)n(C)c1=O", "Potency": "inconclusive: 50.1 µM [inhibitor, partial curve, poor fit]"},
      {"smiles": "Cc1cccc(CN2CCN(C3CN(Cc4cn(Cc5cccc(Cl)c5)nn4)S(=O)(=O)C3)CC2)c1", "note": "(stereo not given)", "Potency": "inconclusive: 44.7 µM [inhibitor, partial curve, poor fit]"},
      {"smiles": "CCOc1ccccc1NC(=O)CSc1nc(=O)n(Cc2ccccn2)c2c1CCC2", "Potency": "inconclusive: 112 µM [inhibitor, single point]"},
      {"smiles": "O=C1CO[C@H]2CN(Cc3ncc[nH]3)C[C@H]2N1Cc1ccccc1", "activity change, negative = inhibition": "inactive: 131% [at 176 µM]"},
      {"smiles": "COc1ccc(CN/C=C2\\CCCCC2=O)cc1", "activity change, negative = inhibition": "inactive: -27.1%"},
      {"smiles": "CCOC(=O)c1nc(Nc2ccccc2C)c2ccccc2n1", "Potency": "inconclusive: 126 µM [inhibitor, single point]"},
      {"smiles": "CC(C)CCNC(=O)NC(=O)COC(=O)Cc1n[nH]c(=O)c2ccccc12", "Potency": "inconclusive: 5.62 µM [inhibitor, full curve, poor fit]"},
      {"smiles": "C#CCOCCOCCOCCNc1nc(N2CCN(C(=O)[C@H]([C@@H](C)O)n3cc(CCCCN)nn3)CC2)nc(N2CCN(C(=O)[C@H](Cc3ccc(O)cc3)n3cc(CCO)nn3)CC2)n1", "Potency": "inconclusive: 7.94 µM [inhibitor, full curve, poor fit]"},
      {"smiles": "CCOc1ccc(CN2CCNC(=O)C2CC(=O)NCc2cc(C)n(C)n2)cc1", "note": "(stereo not given)", "Potency": "inconclusive: 35.5 µM [inhibitor, partial curve, poor fit]"},
      {"smiles": "Cc1ccc(NS(=O)(=O)c2ccc(C(=O)N(C)Cc3ccccc3)cc2)cc1C", "Potency": "inconclusive: 17.8 µM [inhibitor, partial curve, poor fit]"},
      {"smiles": "O=C(Nc1ccc(N2CCCC2)cc1)c1cccc(Cl)c1Cl", "Potency": "inconclusive: 56.2 µM [inhibitor, single point]"},
      {"smiles": "Oc1ccccc1Oc1c(F)c(F)nc(N2CCCC2)c1F", "Potency": "inconclusive: 50.1 µM [inhibitor, partial curve, poor fit]"},
      {"smiles": "CCOc1ccc(/C=N/n2cc(-c3ccccc3)[nH]c2=S)cc1", "Potency": "inconclusive: 28.2 µM [inhibitor, partial curve]"},
      {"smiles": "CCCNC(=O)c1cc(-c2ccc(OC)cc2OC)nc2ccccc12", "Potency": "active: 12.6 µM"},
      {"smiles": "Cc1cc(N2CCNC[C@H]2C)ccc1N1C[C@@H](C)O[C@@H](C)C1", "Potency": "inconclusive: 22.4 µM [inhibitor, partial curve]"},
      {"smiles": "C/C(=N\\N1CCN(Cc2ccc(Cl)cc2)CC1)c1ccc(F)cc1", "Potency": "inconclusive: 89.1 µM [inhibitor, partial curve, poor fit]"},
      {"smiles": "COc1ccc(-c2cn(-c3ccc(OC)cc3)c(=S)[nH]2)cc1", "Potency": "active: 25.1 µM"},
      {"smiles": "c1ccc(CN2CCCC3(CCCN(Cc4nc(CC5CC5)no4)C3)C2)cc1", "note": "(stereo not given)", "activity change, negative = inhibition": "inactive: 1.5%"},
      {"smiles": "CC1=C(C(=O)OCc2ccccc2)C(c2ccc(Cl)cc2)NC(=O)N1CCCC(=O)O", "note": "(stereo not given)", "activity change, negative = inhibition": "inactive: 3.79%"},
      {"smiles": "Cc1cc(N(C)C)ccc1N=Nc1ccc2ncccc2c1", "Potency": "inconclusive: 112 µM [inhibitor, single point]"},
      {"smiles": "CC1(c2nc3ccccc3[nH]2)CCC2=Nc3ccccc3CN21", "note": "(stereo not given)", "Potency": "inconclusive: 4.47 µM [inhibitor, full curve, poor fit]"},
      {"smiles": "CCCCNC(=O)COC(=O)c1cc2c(C)nn(-c3ccccc3)c2s1", "Potency": "inconclusive: 89.1 µM [inhibitor, single point]"},
      {"smiles": "CCCNC(=O)c1ccc(S(=O)(=O)NCCN2CCNC2=O)cc1", "Potency": "inconclusive: 10 µM [inhibitor, partial curve, poor fit]"},
      {"smiles": "O=C(C1CN(C(=O)c2ccc(F)cc2F)c2ccccc2O1)N1CCOCC1", "note": "(stereo not given)", "Potency": "inconclusive: 5.01 µM [inhibitor, full curve, poor fit]"},
      {"smiles": "Cc1ccc2occ(C3N[C@H](C(=O)O)CS3)c(=O)c2c1", "note": "(stereo not given in full)", "Potency": "inconclusive: 50.1 µM [inhibitor, partial curve, poor fit]"},
      {"smiles": "O=C(NCc1cc(C(F)(F)F)ccc1Cl)c1cccc2c1C(=O)c1ccc(N3CCOCC3)cc1S2(=O)=O", "Potency": "inconclusive: 89.1 µM [inhibitor, single point]"},
      {"smiles": "COc1ccc(Cl)cc1NC(=O)Nc1ccc(C(=O)N2CCCC2)cc1", "activity change, negative = inhibition": "inactive: -7.27%"},
      {"smiles": "CC(C)(C)CNC(=O)c1cccc2c1C(=O)c1ccc(N3CCCC3)cc1S2(=O)=O", "activity change, negative = inhibition": "inactive: -21.8%"},
      {"smiles": "CCCCOc1ccc(Cc2c(COCC)[nH]c(=S)[nH]c2=O)cc1", "Potency": "inconclusive: 44.7 µM [inhibitor, partial curve, poor fit]"},
      {"smiles": "Cc1ccc(-c2cc(C(=O)N3CCCC(C(F)(F)F)C3)c3ccccc3n2)o1", "note": "(stereo not given)", "Potency": "active: 7.94 µM and inconclusive: 39.8 µM [inhibitor, partial curve, poor fit]"},
      {"smiles": "CCCCn1c(N)c(N(CC(C)C)C(=O)c2cc(-c3ccco3)nc3ccccc23)c(=O)[nH]c1=O", "Potency": "active: 39.8 µM"}
    ]}
  ]
}
